Experimental data: patent US11746085B2, “Triphenylsulfonium salt compound, and uses thereof” (Changzhou Tronly Advanced Electronic Materials Co., Ltd., priority 2018, dated 2023)

How the values were obtained:
[1] = Acid production rate test (UV irradiation of acetonitrile solution, KOH titration); conditions: 0.02 mmol/g acetonitrile solution, 200 mj/cm^2 cumulative energy at 0.8 mw/cm^2, ultraviolet lamp FL10BL, titrated with 0.05N KOH in ethanol
[2] = Photosensitivity test: minimum exposure amount to form the resist pattern in an exemplary photoresist; conditions: 20 μm photoresist coating, 1 part by mass photoinitiator, line i exposure, 10 μm line pattern, lower value = higher photosensitivity

Structure (SMILES)	Acid production rate ([1]; Table 3) [%]	Minimum exposure amount ([2]; Table 3)	Acid production rate ([1]; Table 4) [%]	Minimum exposure amount ([2]; Table 4) [mj/cm^2]
COc1ccc([S+](c2ccc(C)c(F)c2)c2ccc(C)c(F)c2)cc1 [Compound A-1]	85	120 mj/cm^2	–	–
Cc1ccc(-[s+]2c3ccccc3c(=O)c3cc(C(C)C)ccc32)cc1F (centres unmarked) [Compound A-2]	81	140 mj/cm^2	–	–
Cc1ccc([S+](c2ccc(C)c(F)c2)c2ccc(C)c(F)c2)cc1 [Compound A-3]	80	150 mj/cm^2	–	–
Cc1ccc([S+](c2ccccc2)c2ccccc2)cc1F [Compound A-4]	72	180 mj/cm^2	–	–
Fc1ccc([S+](c2ccccc2)c2ccccc2)cc1F [Compound A-5]	68	200 mj/cm^2	–	–
Cc1ccc([S+](c2ccccc2)c2ccccc2)cc1C(F)(F)F [Compound A-6]	78	160 mj/cm^2	–	–
CC(=O)c1ccc([S+](c2ccccc2)c2ccc(C)c(C#N)c2)cc1 (centres unmarked) [Compound A-7]	65	200 mj/cm^2	–	–
COc1ccc([S+](c2ccc(C(C)=O)cc2)c2ccc(C(C)=O)cc2)cc1F [Compound A-8]	75	170 mj/cm^2	–	–
Cc1ccc([S+](c2ccc(OCCO)cc2)c2ccc(C)c(F)c2)cc1F [Compound A-9]	86	100 mj/cm^2	–	–
Cc1ccc([SH](c2ccc(C)c(F)c2)c2ccc(C)c(F)c2)cc1F [Compound A-10]	80	160 mj/cm^2	–	–
Cc1ccc([S+](c2ccc(C)c(F)c2)c2ccc(C)c(F)c2)cc1 [Compound A-11]	75	170 mj/cm^2	–	–
Cc1ccc([S+](c2ccc(Sc3ccccc3)cc2)c2ccc(C)c(F)c2)cc1F [Compound A-12]	88	110 mj/cm^2	–	–
Cc1ccc([S+](c2ccc(Oc3ccccc3)cc2)c2ccc(C)c(F)c2)cc1F [Compound A-13]	72	180 mj/cm^2	–	–
Cc1ccc([S+](c2ccc(Cc3ccccc3)cc2)c2ccc(C)c(F)c2)cc1F [Compound A-14]	85	110 mj/cm^2	–	–
Cc1ccc([S+](c2ccc(-c3ccccc3)cc2)c2ccc(C)c(F)c2)cc1F [Compound A-15]	84	120 mj/cm^2	–	–
CC(=O)c1cc([SH](c2ccc(Sc3ccccc3)cc2)c2ccc(C)c(C(C)=O)c2)ccc1C [Compound A-16]	82	120 mj/cm^2	–	–
Cc1ccc([S+](c2ccc(C)c(C#N)c2)c2ccc(C)c(C#N)c2)cc1C [Compound A-18]	85	110 mj/cm^2	–	–
Cc1ccc([S+](c2ccc(Sc3ccccc3)cc2)c2ccc(C)c(C(=O)Cl)c2)cc1C(=O)Cl [Compound A-19]	82	120 mj/cm^2	–	–
Fc1ccc([S+](c2ccccc2)c2ccc(Sc3ccccc3)cc2)cc1F (centres unmarked) [Compound A-20]	75	170 mj/cm^2	–	–
Cc1ccc([S+](c2ccccc2)c2ccc(-c3ccccc3)cc2)cc1F (centres unmarked) [Compound A-21]	70	200 mj/cm^2	–	–
Cc1ccc([S+](c2ccc(C)c(F)c2)c2ccc3c(c2)Cc2ccccc2-3)cc1F [Compound A-22]	78	160 mj/cm^2	–	–
Cc1ccc([S+](c2ccc(C)c(F)c2)c2ccc3oc4ccccc4c3c2)cc1F [Compound A-24]	83	120 mj/cm^2	–	–
Cc1ccc([S+](c2ccc(Sc3ccccc3)cc2)c2ccc(C)c([N+](=O)[O-])c2)cc1[N+](=O)[O-] [Compound A-27]	78	170 mj/cm^2	–	–
CCc1ccc([S+](c2ccc(OC)cc2)c2ccc(CC)c(F)c2)cc1F [Compound A-28]	85	120 mj/cm^2	–	–
Cc1ccc([SH](c2ccc(Sc3ccc(C(=O)c4ccccc4)cc3)cc2)c2ccc(C)c(F)c2)cc1F [Compound A-30]	83	110 mj/cm^2	–	–

Structure (SMILES)	Acid production rate ([1]; Table 3) [%]	Minimum exposure amount ([2]; Table 3)	Acid production rate ([1]; Table 4) [%]	Minimum exposure amount ([2]; Table 4) [mj/cm^2]
CCc1ccc([S+](c2ccc(OC)cc2)c2ccc(CC)c(C(F)(F)F)c2)cc1C(F)(F)F [Compound A-31]	76	180 mj/cm^2	–	–
CCc1ccc([S+](c2ccc(OCCO)cc2)c2ccc(CC)c([N+](=O)[O-])c2)cc1[N+](=O)[O-] [Compound A-32]	80	150 mj/cm^2	–	–
COc1ccc([S+](c2ccc(Sc3ccccc3)cc2)c2ccc(OC)c(F)c2)cc1F [Compound A-35]	81	140 mj/cm^2	–	–
Fc1cc([S+](c2ccc(Sc3ccccc3)cc2)c2ccc(Cc3ccccc3)c(F)c2)ccc1Cc1ccccc1 [Compound A-36]	83	110 mj/cm^2	–	–
Cc1ccc([S+](c2ccc(/C=C/c3ccccc3)cc2)c2ccc(C)c(F)c2)cc1F [Compound A-37]	85	110 mj/cm^2	–	–
Cc1ccc([S+](c2ccccc2)c2ccc(/C=C/c3ccccc3)cc2)cc1F (centres unmarked) [Compound A-38]	74	180 mj/cm^2	–	–
Fc1cccc([S+](c2ccccc2)c2ccccc2)c1 [Compound B-1, reference compound]	70	200 mj/cm^2	–	–
Cc1ccc([S+](c2ccccc2)c2ccccc2)cc1 [Compound B-2, reference compound]	43	More than 300 mj/cm^2	–	–
Cc1ccc([S+](c2ccc(Sc3ccc([S+](c4ccc(C)c(F)c4)c4ccc(C)c(F)c4)cc3)cc2)c2ccc(C)c(F)c2)cc1F [Compound C-1]	–	–	87	100
Cc1ccc([S+](c2ccc(Sc3ccc([S+](c4ccc(C)c(C(F)(F)F)c4)c4ccc(C)c(C(F)(F)F)c4)cc3)cc2)c2ccc(C)c(C(F)(F)F)c2)cc1C(F)(F)F [Compound C-2]	–	–	84	110
Cc1ccc([S+](c2ccc(Sc3ccc([S+](c4ccc(C)c([N+](=O)[O-])c4)c4ccc(C)c([N+](=O)[O-])c4)cc3)cc2)c2ccc(C)c([N+](=O)[O-])c2)cc1[N+](=O)[O-] [Compound C-3]	–	–	89	90
Cc1ccc([S+](c2ccc(Sc3ccc([S+](c4ccc(C)c(C#N)c4)c4ccc(C)c(C#N)c4)cc3)cc2)c2ccc(C)c(C#N)c2)cc1C#N [Compound C-4]	–	–	82	120
CCc1ccc([S+](c2ccc(Sc3ccc([S+](c4ccc(CC)c(F)c4)c4ccc(CC)c(F)c4)cc3)cc2)c2ccc(CC)c(F)c2)cc1F [Compound C-5]	–	–	92	80
CCc1ccc([S+](c2ccc(Sc3ccc([S+](c4ccc(CC)c(C(F)(F)F)c4)c4ccc(CC)c(C(F)(F)F)c4)cc3)cc2)c2ccc(CC)c(C(F)(F)F)c2)cc1C(F)(F)F [Compound C-6]	–	–	84	110
Cc1ccc([S+](c2ccc(/C=C/c3ccc([S+](c4ccc(C)c(F)c4)c4ccc(C)c(F)c4)cc3)cc2)c2ccc(C)c(F)c2)cc1F [Compound C-7]	–	–	82	120
Cc1ccc([S+](c2ccc(Oc3ccc([S+](c4ccc(C)c(F)c4)c4ccc(C)c(F)c4)cc3)cc2)c2ccc(C)c(F)c2)cc1F [Compound C-8]	–	–	80	130
Cc1ccc([S+](c2ccc(Cc3ccc([S+](c4ccc(C)c([N+](=O)[O-])c4)c4ccc(C)c([N+](=O)[O-])c4)cc3)cc2)c2ccc(C)c([N+](=O)[O-])c2)cc1[N+](=O)[O-] [Compound C-9]	–	–	82	120
Cc1ccc([S+](c2ccc(-c3ccc([S+](c4ccc(C)c(F)c4)c4ccc(C)c(F)c4)cc3)cc2)c2ccc(C)c(F)c2)cc1F [Compound C-10]	–	–	79	140
Cc1ccc([S+](c2ccc(-c3ccc([S+](c4ccc(C)c(C#N)c4)c4ccc(C)c(C#N)c4)cc3)cc2)c2ccc(C)c(C#N)c2)cc1C#N [Compound C-11]	–	–	78	140
Cc1ccc([S+](c2ccc(Sc3ccc([S+](c4ccc(C)c(F)c4)c4ccc(C)c(F)c4)cc3C)c(C)c2)c2ccc(C)c(F)c2)cc1F [Compound C-12]	–	–	84	110
Cc1ccc([S+](c2ccc(Sc3ccc([S+](c4ccc(C)c(C#N)c4)c4ccc(C)c(C#N)c4)cc3C)c(C)c2)c2ccc(C)c(C#N)c2)cc1C#N [Compound C-13]	–	–	80	130
Fc1cc([S+](c2ccc(Sc3ccc([S+](c4ccc(Cc5ccccc5)c(F)c4)c4ccc(Cc5ccccc5)c(F)c4)cc3)cc2)c2ccc(Cc3ccccc3)c(F)c2)ccc1Cc1ccccc1 [Compound C-16]	–	–	77	150
Cc1ccc([S+](c2ccccc2)c2ccc(Sc3ccc([S+](c4ccccc4)c4ccc(C)c(F)c4)cc3)cc2)cc1F (centres unmarked) [Compound C-17]	–	–	74	180
COc1ccc([S+](c2ccccc2)c2ccc(Sc3ccc([S+](c4ccccc4)c4ccc(OC)c(F)c4)cc3)cc2)cc1F (centres unmarked) [Compound C-18]	–	–	72	190
